# Library screening results

From ChEMBL document CHEMBL3988442, “University of Dundee, Small-Polar-MMV Screening Library” (2021).

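Whole-cell assay for inhibitors of Mycobacterium tuberculosis growth, labelled Cornell in the record; the read-out is not stated. The concentration is filed as 10 mM, unlikely as a test dose, so the dose is not known. Higher means stronger inhibition (inferred from two other growth screens of the library). Size under these conditions: about 53,000 compounds, about 900 of them at 50% or above in at least one test.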

Each number is a percent effect as filed. How 0% and 100% were set is not recorded. Most values in the screen are low, and negative values occur. This is an unselected part of the compounds tested.

Result for COc1ccc(CNC(=O)CN2CCc3ccccc32)cc1 was -62.91%.
Result for CCc1nnc2n1CCN(C(=O)CN(C)Cc1ccccc1)C2 was 18%.
Result for O=S(=O)(CCCN1CCOC(Cn2cccn2)C1)c1ccccc1 (stereo not given) was -16.09%.
Result for CC(C(=O)NC1CCCC1)S(=O)(=O)Cc1noc(C(C)(C)C)n1 (stereo not given) was -21.84%.
Result for [H][C@@]12CNC[C@]1([H])N(C(=O)C1CCC1)CCO2 was -14.35%.
Result for Cc1ccc2c(c1)C1(CCN(C(=O)C3CC3)CC1)CC2N1CCOCC1.O=C(O)C(F)(F)F (stereo not given) was 14.71%.
Result for Cc1cccc(CNC2(CCO)CCOCC2)c1C was -5.06%.
Result for O=C1CC(c2cccnc2)c2c(c(C(=O)O)cn2-c2cccc(F)c2)N1 (stereo not given) was 1.866%.
Result for O=C(NCCOc1ccc2c(c1)OCO2)C1CC(=O)N(CC2CC2)C1 (stereo not given) was 15.7%.
Result for COc1ccc(C(CC(=O)NCc2n[nH]c(N)n2)c2ccccc2)cc1 (stereo not given) was 15.08%.
Result for Cc1ccc(OCCC(=O)NC(C)c2ccncc2)cc1 (stereo not given) was -0.2334%.
Result for CCCC(C)C(=O)Nc1ccc(OC)nc1N1CCN(C(C)=O)CC1 (stereo not given) was -2.931%.
Result for CC(C)CN1C(=O)CC[C@]12CC[C@@H](NC(=O)NCc1cccnc1)CC2.O=C(O)C(F)(F)F was -7.477%.
Result for CCc1n[nH]c(C2CN(Cc3ncc(CC)o3)CCO2)n1 (stereo not given) was -29.68%.
Result for COC(=O)C(CNC(=O)Nc1nncs1)Cc1ccc(O)cc1 (stereo not given) was 11.91%.
Result for COCCn1ccc(NC(=O)Nc2cccnc2)n1 was -4.981%.
Result for O=C1CC2(CCN(CC3CCOC3)CC2)CN1Cc1cc(F)cc(F)c1 (stereo not given) was 4.566%.
Result for Cc1cc(=O)[nH]c(SC(C)C(=O)N2CCCN(C3CCCC3)CC2)n1 (stereo not given) was -16.01%.
Result for c1cc(N2CCSCC2)ccc1CNc1cncc2nnnn12 was -10.58%.
Result for Cc1occc1C(=O)N1CCCS1(=O)=O was -9.493%.
Result for Cc1ccc(S(=O)(=O)Nc2ccc(N3CCSCC3)c(C(=O)O)c2)s1 was -60.37%.
Result for CC(C)Nc1cccc(CC2CCN(C)C2)n1.O=CO (stereo not given) was 8.985%.
Result for COCCCC1(CO)CCCN(CCOC)C1 (stereo not given) was 2.655%.
Result for CN(c1ccc(C(C)(C)C)cc1)S(=O)(=O)c1cc(C(=O)O)cs1 was 8.005%.
Result for Cn1cc(CC(CNC(=O)Nc2cccc(Cl)c2)C(N)=O)cn1 (stereo not given) was 42.14%.
Result for O=C(CC1CSc2nccc(=O)n21)NCc1cc(-c2ccco2)on1 (stereo not given) was 2.051%.
Result for CCn1cc(CN2CCCN(C(=O)CCSC)CC2)cn1 was 1.682%.
Result for COc1ccc(-c2csc3c2c(N)nc(=O)n3CCN(C)C)cc1 was 12.82%.
Result for O=C(O)C(F)(F)F.c1cncc(COC2COC3(CCN(c4cnccn4)CC3)C2)c1 (stereo not given) was -10.4%.
Result for Cc1ccoc1C(=O)N1CCNCC1C(=O)NCc1ccncc1 (stereo not given) was -15.22%.
Result for CCn1ncc2c1CN(C(=O)Cc1cccs1)CC2COC.O=C(O)C(F)(F)F (stereo not given) was 19.74%.
Result for COCc1noc(-c2ccc(N(C)Cc3nccs3)nc2)n1 was 8.534%.
Result for CCn1ncc(CNC(=O)c2cn(CCC3CCCCN3)nn2)c1C (stereo not given) was 5.525%.
Result for CC(C)(C)CNS(=O)(=O)C1CS(=O)(=O)c2ccccc21 (stereo not given) was -10.81%.
Result for O=C(Cc1c[nH]c2ccccc12)NCC1CCN(Cc2c[nH]cn2)C1 (stereo not given) was -20.82%.
Result for Cc1ccc(CCCC(=O)N2CCN(C3CCCN(C)C3)CC2)s1 (stereo not given) was 19.7%.
Result for CCOC1COC2(CCN(c3ccccn3)CC2)C1.O=C(O)C(F)(F)F (stereo not given) was 3.904%.
Result for O=C(NCc1ccccc1F)N1CCC(C2OCCO2)CC1 was -10.78%.
Result for CCn1nccc1CNC(=O)C1CC1 was 17.71%.
Result for NC(=O)CCSCc1cc(Br)cc2cccnc12 was -15.43%.
Result for CCOc1cc(CNCCCn2ccnc2)cc(Cl)c1OCC was -11.8%.
Result for CCN1CCn2c(C)cnc2C12CCN(C(=O)c1ccc(Cl)cc1)CC2.O=C(O)C(F)(F)F was -1.012%.
Result for O=C(O)C(F)(F)F.O=C(O)C(F)(F)F.[H][C@@]12COC[C@]1(COc1ncccc1F)CN(c1cc(OC)ncn1)C2 was 17.24%.
Result for CN(Cc1ccc(C#N)cc1)CC1CCS(=O)(=O)C1 (stereo not given) was -9.804%.
Result for O=C(O)C(F)(F)F.[H][C@@]12CCCO[C@]1([H])[C@@H](OCc1ccccn1)CN2C(=O)c1cnoc1C was 12.19%.
Result for Cc1nc(N2CCC3(CCOC3)C2)c2cc[nH]c2n1 (stereo not given) was -19.09%.
Result for [H][C@@]12CNCC[C@]1(O)CCN(Cc1c(OCCC)ccc3ccccc13)C2 was 20.39%.
Result for CCn1cc(NC(=O)NCc2ccc3c(c2)OCCO3)cn1 was 21.24%.
Result for COc1ccccc1C(O)Cn1cc(C(=O)NCC2CC2)nn1 (stereo not given) was -1.095%.
Result for Cc1cc(F)c2c(c1)CCCN2Cc1nc2c(cnn2C)c(=O)[nH]1 was 1.423%.
Result for O=C(c1cc[nH]n1)N1CCCC1c1ccccn1 (stereo not given) was 8.656%.

5 of the entries, repeated:

Cc1occc1C(=O)N1CCCS1(=O)=O read -9.493%.
CCn1nccc1CNC(=O)C1CC1 read 17.71%.
O=C(NCc1ccccc1F)N1CCC(C2OCCO2)CC1 read -10.78%.
CN(Cc1ccc(C#N)cc1)CC1CCS(=O)(=O)C1 (stereo not given) read -9.804%.
CC(C)Nc1cccc(CC2CCN(C)C2)n1.O=CO (stereo not given) read 8.985%.